Experimental data published in patent publication EP3925626A1 (priority 2020, dated 2021).
For some of these results: Strings that start with PEPTIDE1 are HELM notation: dots part the residues, brackets hold end groups and non-standard residues.

Assays:
[1] = general procedure: Fmoc solid-phase peptide synthesis; 2-chlorotrityl; DIPCI/HOBt; TBTU/HOBt/DIPEA for fragment coupling; settings: whole synthesis, RP-HPLC, scale 1.310 mmol, trifluoroacetate salt
[2] = general procedure: Fmoc solid-phase peptide synthesis; 2-chlorotrityl carrier; aminomethylpolystyrene carrier; DIPCI/HOBt; TBTU/HOBt/DIPEA for fragment coupling; settings: whole synthesis, trifluoroacetate salt; for final HPLC purity: RP-HPLC; for final HPLC purity / isolated yield: scale of the general procedure 0.345 mmol, 1.310 mmol, 0.395-1.185 mmol
[3] = general procedure: Fmoc solid-phase peptide synthesis; 2-chlorotrityl chloride; DIPCI/HOBt; TBTU/HOBt/DIPEA for fragment coupling; settings: whole synthesis, trifluoroacetate salt
[4] = general procedure: Fmoc solid-phase peptide synthesis; aminomethylpolystyrene; DIPCI/HOBt; TBTU/HOBt/DIPEA for fragment coupling; settings: whole synthesis, trifluoroacetate salt

## N^α-lauroyl-Gly-Pro-Hyp-Lys(Boc)-OH
[1]
  crude purity (method not given): >95%

## N^α-lauroyl-Gly-Pro-Hyp-Lys-Gly-Hyp-Hyp-Lys-NH2
[2]
  final HPLC purity: over 95%
  isolated yield: 75.0%
  isolated mass: 111.4 mg
[2]; scale 0.173 mmol
  crude mass: 148.5 mg

## PEPTIDE1{[Lau].G.P.[Hyp].K.[am]}$$$$V2.0
[3]
  crude mass: 355.5 mg
[2]
  final HPLC purity: over 97%
  isolated yield: 73.0%
  isolated mass: 259.6 mg

## PEPTIDE1{[Lau].G.[Hyp].[Hyp].K.[am]}$$$$V2.0
[4]
  crude mass: 226.5 mg
[2]
  final HPLC purity: over 97%
  isolated yield: 59.0%
  isolated mass: 133.6 mg
